Reference: US9072756B2, “Methods and compositions for increasing the efficacy of an agent that directly or indirectly affects a muscarinic receptor through administration of a pyrophosphate analog” (HealthPartners Research Foundation, priority 2000, dated 2015)
At least one compound was matched to its structure with a doubt left.

How the values were obtained:
[1] = target: muscarinic acetylcholine receptor (mAChR); experiment: Protection of mAChR from inactivation by the endogenous LMW inhibitor, [3H]-oxotremorine M (agonist) binding; set-up: species or system human; conditions: FIG. 10, read-out: concentration that provides 50% protection from loss of agonist (3H-Oxotremorine M) binding
[2] = target: muscarinic acetylcholine receptor (mAChR); experiment: Protection of mAChR from inactivation by the endogenous LMW inhibitor, [3H]QNB (antagonist) binding; set-up: species or system human

SMILES	EC50 [1] [µM]	EC50 ([2]; LMW inhibitor or heme and peroxide, FIGS. 8 and 9, read-out: concentration that provides 50% protection of the receptor from loss of antagonist (3H-QNB) binding) [µM]	protection of the mAChR from inactivation by the LMW inhibitor (in words) ([2]; LMW inhibitor, 3H-QNB binding, FIGS. 4-7, 15, 17, 19)
C=CC1=C(C)/C(=C/c2[nH]c(Cc3[nH]c(/C=C4\NC(=O)C(C)=C4C=C)c(C)c3CCC(=O)O)c(CCC(=O)O)c2C)NC1=O [bilirubin]	1.9	~0.7	
O=P(O)(O)NP(=O)(O)O [imidodiphosphate]			protect the mAChR from inactivation
